In article PMC3199733, “Expression, purification, electron microscopy, N-glycosylation mutagenesis and molecular modeling of human P2X4 and Dictyostelium discoideum P2XA” (Biochimica et Biophysica Acta, 2011):
These are yes or no findings as the source states them, for the method shown. Tags and fused reporters may be left off the sequences shown.

Molecular target: human P2X4-(His)10 (human) (UniProt Q99571)
Experiment: native gel or EMSA; PFO-PAGE with anti-His Western blot of Sf9 membranes solubilised in 1% (w/v) SDS (control lane)

B1: human P2X4-(His)10 (receptor, UniProt Q99571 1-388, looked up)
chain: MAGCCAALAAFLFEYDTPRIVLIRSRKVGLMNRAVQLLILAYVIGWVFVWEKGYQETDSVVSSVTTKVKGVAVTNTSKLGFRIWDVADYVIPAQEENSLFVMTNVILTMNQTQGLCPEIPDATTVCKSDASCTAGSAGTHSNGVSTGRCVAFNGSVKTCEVAAWCPVEDDTHVPQPAFLKAAENFTLLVKNNIWYPKFNFSKRNILPNITTTYLKSCIYDAKTDPFCPIFRLGKIVENAGHSFQDMAVEGGIMGIQVNWDCNLDRAASLCLPRYSFRRLDTRDVEHNVSPGYNFRFAKYYRDLAGNEQRTLIKAYGIRFDIIVFGKAGKFDIIPTMINIGSGLALLGMATVLCDIIVLYCMKKRLYYREKKYKYVEDYEQGLASELDQ
notes: human P2X4 receptor, full-length wild type; N-glycosylated (insect-cell type); also called hP2X4; source: Sf9 cells, baculovirus-infected; in membranes, untreated or detergent-solubilised
For B1, the binding was “no binding (condition: solubilised in 1% (w/v) SDS)”.
